Data reported in the supplement of paper PMC4749390.
Where a name gives a salt, the structure may show the parent alone. The list shows a part of the results. Repeats in this data set agree poorly, so a single value says little.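 JEG3 cells stably carry tetracycline-induced wild-type human LRH-1, a heavily sumoylated nuclear receptor. APOC3 and MUC1 are SUMO-sensitive transcripts, raised by SUMO-less LRH-1 or UBC9 knockdown, measured by RT-qPCR against TBP and DMSO controls. A robust Z-score above +2 or below -2 marked a primary hit before toxicity and TBP filtering.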

test system: JEG3 expressing hLRH-1; experiment: MUC1 transcript change (ddCt vs TBP and DMSO), Z-score over library; higher = higher MUC1 expression; settings: 10 µM; time (hr): 24

| Compound | MUC1 transcript change (Z-score) |
| --- | --- |
| C=C[C@@]1(C)CC(=O)[C@@]2(O)[C@](C)(O1)[C@@H](OC(C)=O)[C@@H](O)C1C(C)(C)CC[C@H](O)[C@@]12C (stereo partly specified) [colforsin] | -5.72 |
| NC(=O)C1(N2CCCCC2)CCN(CCCC(=O)c2ccc(F)cc2)CC1 [pipamperone] | 0.638 |
| COc1c2occc2c(OC)c2c(=O)cc(C)oc12 [khellin] | 0.614 |
| NC(=O)CC[C@H](N)C(=O)O [L-Glutamine] | 0.984 |
| CCCC(C(=O)OCCN(CC)CC)(c1ccccc1)c1ccccc1 [SKF-525A hydrochloride] | 0.705 |
| NC(=O)C1CCCN1C(=O)C(Cc1c[nH]cn1)NC(=O)C1CCC(=O)N1 (stereo unspecified) [protirelin] | 0.535 |
| CN1CCC[C@H]1c1cccnc1 [nicotine ditartrate] | 0.463 |
| Cc1cc(C(C)(C)C)cc(C)c1CC1=NCCN1 [xylometazoline hydrochloride] | 0.999 |
| CC1(C)S[C@@H]2[C@H](NC(=O)COc3ccccc3)C(=O)N2[C@H]1C(=O)O [penicillin v potassium] | 0.695 |
| CCCC(=O)O[C@]1(C(=O)CO)CC[C@H]2[C@@H]3CCC4=CC(=O)CC[C@]4(C)[C@H]3[C@@H](O)C[C@@]21C [hydrocortisone butyrate] | -0.451 |
| O=c1[nH]c(=O)n([C@H]2C[C@H](O)[C@@H](CO)O2)cc1C(F)(F)F [trifluridine] | 2.72 |
| CCCOc1ccccc1-c1nc(O)c2[nH]nnc2n1 [Zaprinast] | -0.241 |
| CCC1OC(=O)[C@H](C)C(=O)[C@H](C)[C@@H](OC2O[C@H](C)C[C@H](N(C)C)[C@H]2O)[C@](C)(OC)C[C@@H](C)C(=O)[C@@H](C)[C@@H]2N(CCCCn3cnc(-c4cccnc4)c3)C(=O)O[C@]12C (stereo partly specified) [telithromycin] | -0.000653 |
| N=C(N)NC(=O)Cc1c(Cl)cccc1Cl [guanfacine hydrochloride] | 0.624 |
| CC1=C(C/C=C(\C)CCC[C@H](C)CCC[C@H](C)CCCC(C)C)C(=O)c2ccccc2C1=O [phytonadione] | 0.724 |
| CCCCCCCCNC(C)C(O)c1ccc(SC(C)C)cc1 (stereo unspecified) [suloctidil] | -0.249 |
| C[C@H]1O[C@@H](O[C@H]2[C@@H](O)C[C@H](O[C@H]3[C@@H](O)C[C@H](O[C@H]4CC[C@@]5(C)[C@H](CC[C@@H]6[C@@H]5CC[C@]5(C)[C@@H](C7=CC(=O)OC7)CC[C@]65O)C4)O[C@@H]3C)O[C@@H]2C)C[C@H](O)[C@@H]1O [digitoxin] | 0.0347 |
| CN(Cc1cnc2nc(N)nc(N)c2n1)c1ccc(C(=O)NC(CCC(=O)O)C(=O)O)cc1 (racemic) [methotrexate(+/-)] | 0.516 |
| NCc1ccccc1CC(=O)NC1C(=O)N2C(C(=O)O)=C(CSc3nnnn3CC(=O)O)CSC12 (stereo unspecified) [ceforanide] | 0.11 |
| O=S(=O)(O)CCCS(=O)(=O)O [eprodisate disodium] | 0.0755 |
| COc1cc(NS(=O)(=O)c2ccc(N)cc2)nc(OC)n1 [sulfadimethoxine] | 0.501 |
| CC(C)c1nc(N(C)S(C)(=O)=O)nc(-c2ccc(F)cc2)c1/C=C/[C@@H](O)C[C@@H](O)CC(=O)O [rosuvastatin] | -0.0371 |
| CN1C2CCC1CC(OC(=O)c1c[nH]c3ccccc13)C2 (stereo unspecified) [3-Tropanyl-indole-3-carboxylate hydrochloride] | 0.857 |

| Compound | MUC1 transcript change (Z-score) |
| --- | --- |
| CC(=O)OCC(=O)[C@@]1(O)[C@H](OC(C)=O)C[C@H]2[C@@H]3CCC4=CC(=O)C=C[C@]4(C)[C@@]3(F)[C@@H](O)C[C@@]21C [triamcinolone diacetate] | -0.257 |
| O=C1OC2(c3ccc(O)cc3Oc3cc(O)ccc32)c2ccccc21 [fluorescein] | -0.8 |
| CCCCNc1ccc(C(=O)OCCN(C)C)cc1 [Tetracaine hydrochloride] | 0.0457 |
| CC(=O)Oc1cccc(C(=O)O)c1OC(C)=O [dipyrocetyl] | 0.62 |
| CN(C)CCC(c1ccccc1)c1ccccn1 (stereo unspecified) [pheniramine maleate] | 0.36 |
| NCCc1cc[nH]n1 [betazole hydrochloride] | 0.582 |
| CC(C)(Sc1cc(C(C)(C)C)c(O)c(C(C)(C)C)c1)Sc1cc(C(C)(C)C)c(O)c(C(C)(C)C)c1 [probucol] | -0.713 |
| CN(C)CCOC(=O)C(c1ccccc1)C1(O)CCCC1 (stereo unspecified) [cyclopentolate hydrochloride] | -0.255 |
| CC(=O)Nc1ccc(S(=O)(=O)Nc2ccc([N+](=O)[O-])cc2)cc1 [sulfanitran] | 0.874 |
| Nc1ccc(C(=O)NCC(=O)O)cc1 [aminohippuric acid] | 0.192 |
| Nc1nc(O)c2c(n1)NCC(CNc1ccc(C(=O)N[C@@H](CCC(=O)O)C(=O)O)cc1)N2C=O (stereo partly specified) [leucovorin calcium] | 0.504 |
| CC(=O)N[C@@H]1[C@@H](C(O)[C@H](O)CO)O[C@](O)(C(=O)O)C[C@@H]1O (stereo partly specified) [n-acetylneuramic acid] | 0.671 |
| CC[C@H](C)C(=O)O[C@H]1CCC=C2C=C[C@H](C)C(CCC3C[C@@H](O)CC(=O)O3)[C@H]21 (stereo partly specified) [compactin] | -0.25 |
| NCC(=O)CCC(=O)O [aminolevulinic acid hydrochloride] | 0.548 |
| COc1ccc(CN(CCN(C)C)c2ncccn2)cc1 [thonzylamine hydrochloride] | -0.278 |
| Cn1c([N+](=O)[O-])cnc1COC(N)=O [ronidazole] | 0.0558 |
| Cc1ccc(C)c(OCCCC(C)(C)C(=O)O)c1 [gemfibrozil] | 0.0605 |
| C=CCNC(N)=S [allylthiourea] | -0.389 |
| C[C@]12CCC(=O)C=C1C=C[C@@H]1[C@@H]2CC[C@@]2(C)[C@H]1CC[C@@]21CCC(=O)O1 [canrenone] | 0.309 |
| CC1(C)[C@@H](O)CC[C@]2(C)[C@H]3C(=O)C=C4[C@@H]5C[C@@](C)(C(=O)O)CC[C@]5(C)CC[C@@]4(C)[C@]3(C)CC[C@@H]12 [enoxolone] | 0.213 |
| C/C=C/C(=O)N(CC)c1ccccc1C [crotamiton] | -0.437 |
| NC(=O)N1c2ccccc2CC(=O)c2ccccc21 [oxcarbazepine] | 0.278 |
| CC(C)(C)NCC(O)COc1cccc2c1CCCC2=O (stereo unspecified) [levobunolol hydrochloride] | 0.576 |

Single values from the list:
For MUC1 transcript change (Z-score), `Cc1ccc(C)c(OCCCC(C)(C)C(=O)O)c1` [gemfibrozil] reads 0.0605
For MUC1 transcript change (Z-score), `CC1(C)S[C@@H]2[C@H](NC(=O)COc3ccccc3)C(=O)N2[C@H]1C(=O)O` [penicillin v potassium] reads 0.695
